Results on 26 targets are retold here after the supplement of paper PMC12819154, “High-throughput peptide-centric local stability assay extends protein–ligand identification to membrane proteins, tissues and bacteria” (Nature Structural & Molecular Biology, 2025).

Amino acid sequences for entries named in this document (tags omitted). A change or cut given only in a name is not applied to a line headed by its entry.
UniProt Q9Y371: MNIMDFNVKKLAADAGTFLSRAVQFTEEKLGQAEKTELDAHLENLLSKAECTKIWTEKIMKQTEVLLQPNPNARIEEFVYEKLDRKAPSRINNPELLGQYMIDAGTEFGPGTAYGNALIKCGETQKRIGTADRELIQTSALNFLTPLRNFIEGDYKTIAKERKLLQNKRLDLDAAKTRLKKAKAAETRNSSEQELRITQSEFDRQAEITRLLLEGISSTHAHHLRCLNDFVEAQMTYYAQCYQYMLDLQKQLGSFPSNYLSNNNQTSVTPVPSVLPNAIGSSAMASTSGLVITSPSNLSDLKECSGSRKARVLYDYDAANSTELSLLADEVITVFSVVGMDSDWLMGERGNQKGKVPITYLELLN
UniProt Q9Y2Q1, whole entry: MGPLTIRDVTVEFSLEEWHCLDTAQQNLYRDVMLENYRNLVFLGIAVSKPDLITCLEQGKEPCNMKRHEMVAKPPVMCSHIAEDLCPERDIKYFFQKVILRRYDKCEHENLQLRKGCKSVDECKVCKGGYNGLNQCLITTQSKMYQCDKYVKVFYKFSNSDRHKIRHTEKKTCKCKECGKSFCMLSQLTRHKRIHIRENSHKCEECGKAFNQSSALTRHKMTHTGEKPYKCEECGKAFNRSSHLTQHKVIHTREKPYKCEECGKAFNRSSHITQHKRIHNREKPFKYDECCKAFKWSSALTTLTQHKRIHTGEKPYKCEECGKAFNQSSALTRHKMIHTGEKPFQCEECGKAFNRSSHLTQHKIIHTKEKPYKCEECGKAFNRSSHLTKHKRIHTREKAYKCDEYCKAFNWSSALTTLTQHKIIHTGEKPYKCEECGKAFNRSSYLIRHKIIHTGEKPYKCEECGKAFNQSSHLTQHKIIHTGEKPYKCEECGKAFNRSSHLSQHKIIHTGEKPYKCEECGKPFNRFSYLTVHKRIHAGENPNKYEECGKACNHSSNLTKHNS
UniProt Q9ULW3: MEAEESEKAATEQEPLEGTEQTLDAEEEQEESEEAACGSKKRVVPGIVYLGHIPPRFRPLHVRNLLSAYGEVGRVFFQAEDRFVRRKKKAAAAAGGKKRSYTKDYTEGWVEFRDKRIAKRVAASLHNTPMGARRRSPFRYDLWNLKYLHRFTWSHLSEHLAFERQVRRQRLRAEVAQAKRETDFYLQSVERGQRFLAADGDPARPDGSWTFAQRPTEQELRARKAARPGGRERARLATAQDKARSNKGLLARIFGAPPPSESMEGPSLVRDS
UniProt Q9UPY5: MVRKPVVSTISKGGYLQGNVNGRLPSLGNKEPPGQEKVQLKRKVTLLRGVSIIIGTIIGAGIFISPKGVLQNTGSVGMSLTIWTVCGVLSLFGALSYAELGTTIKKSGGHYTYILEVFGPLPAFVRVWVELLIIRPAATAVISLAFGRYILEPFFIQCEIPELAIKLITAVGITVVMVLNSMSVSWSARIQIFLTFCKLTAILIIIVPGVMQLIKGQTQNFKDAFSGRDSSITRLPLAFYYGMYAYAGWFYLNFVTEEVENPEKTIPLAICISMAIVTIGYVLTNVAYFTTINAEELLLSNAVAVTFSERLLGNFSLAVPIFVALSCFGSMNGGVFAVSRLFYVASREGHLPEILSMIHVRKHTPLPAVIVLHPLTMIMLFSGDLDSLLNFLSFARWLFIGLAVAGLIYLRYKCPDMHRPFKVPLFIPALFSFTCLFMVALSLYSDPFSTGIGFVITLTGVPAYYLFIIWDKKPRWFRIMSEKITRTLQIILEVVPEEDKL
UniProt Q9UL46, whole entry: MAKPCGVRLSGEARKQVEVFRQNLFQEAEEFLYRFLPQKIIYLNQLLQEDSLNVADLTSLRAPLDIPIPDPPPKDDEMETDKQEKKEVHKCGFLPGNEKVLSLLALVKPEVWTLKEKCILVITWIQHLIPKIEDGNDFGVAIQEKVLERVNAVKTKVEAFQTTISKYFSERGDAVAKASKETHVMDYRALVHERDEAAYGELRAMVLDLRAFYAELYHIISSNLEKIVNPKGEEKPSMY
UniProt Q9Y3B1: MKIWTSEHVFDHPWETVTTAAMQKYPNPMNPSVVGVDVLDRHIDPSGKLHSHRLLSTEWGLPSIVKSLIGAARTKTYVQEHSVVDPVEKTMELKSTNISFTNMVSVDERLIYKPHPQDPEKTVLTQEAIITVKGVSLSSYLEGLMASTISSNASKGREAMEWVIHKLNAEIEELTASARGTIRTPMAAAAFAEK
UniProt Q9Y248: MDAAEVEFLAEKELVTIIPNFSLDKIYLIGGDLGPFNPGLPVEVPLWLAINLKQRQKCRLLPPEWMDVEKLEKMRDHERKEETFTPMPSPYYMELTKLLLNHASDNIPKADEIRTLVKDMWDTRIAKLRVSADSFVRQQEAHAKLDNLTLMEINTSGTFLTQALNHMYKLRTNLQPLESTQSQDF
UniProt Q9ULD5: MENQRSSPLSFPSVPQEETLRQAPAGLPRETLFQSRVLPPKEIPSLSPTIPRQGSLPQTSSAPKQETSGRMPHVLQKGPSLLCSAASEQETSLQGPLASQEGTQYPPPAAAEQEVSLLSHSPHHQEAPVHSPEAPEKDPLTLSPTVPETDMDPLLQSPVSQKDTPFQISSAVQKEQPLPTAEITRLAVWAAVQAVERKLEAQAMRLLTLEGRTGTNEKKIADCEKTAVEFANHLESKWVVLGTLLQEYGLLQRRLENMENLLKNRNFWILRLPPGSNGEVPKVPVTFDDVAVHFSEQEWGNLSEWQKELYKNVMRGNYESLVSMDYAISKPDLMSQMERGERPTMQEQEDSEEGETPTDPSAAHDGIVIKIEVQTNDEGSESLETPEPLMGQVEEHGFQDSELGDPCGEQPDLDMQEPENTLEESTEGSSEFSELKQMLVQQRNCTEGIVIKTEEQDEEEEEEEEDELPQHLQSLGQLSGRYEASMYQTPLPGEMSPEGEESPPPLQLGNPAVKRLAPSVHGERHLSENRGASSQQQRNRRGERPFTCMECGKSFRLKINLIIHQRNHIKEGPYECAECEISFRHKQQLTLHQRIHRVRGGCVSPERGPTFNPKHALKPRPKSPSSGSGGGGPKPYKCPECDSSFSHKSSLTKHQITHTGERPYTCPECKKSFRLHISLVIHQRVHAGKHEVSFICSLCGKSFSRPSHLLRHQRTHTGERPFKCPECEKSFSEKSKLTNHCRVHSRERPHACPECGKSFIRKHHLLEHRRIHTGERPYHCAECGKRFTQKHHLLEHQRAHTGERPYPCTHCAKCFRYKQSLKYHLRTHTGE
UniProt Q9UNE7: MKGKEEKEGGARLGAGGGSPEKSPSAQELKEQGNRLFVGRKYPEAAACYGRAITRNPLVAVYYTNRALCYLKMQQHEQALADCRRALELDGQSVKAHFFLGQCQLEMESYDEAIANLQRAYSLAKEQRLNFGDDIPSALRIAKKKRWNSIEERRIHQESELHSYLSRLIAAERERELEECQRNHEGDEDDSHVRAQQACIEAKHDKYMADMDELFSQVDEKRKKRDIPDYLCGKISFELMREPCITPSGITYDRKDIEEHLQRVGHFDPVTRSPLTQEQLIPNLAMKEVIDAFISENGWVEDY
UniProt Q9ULK5: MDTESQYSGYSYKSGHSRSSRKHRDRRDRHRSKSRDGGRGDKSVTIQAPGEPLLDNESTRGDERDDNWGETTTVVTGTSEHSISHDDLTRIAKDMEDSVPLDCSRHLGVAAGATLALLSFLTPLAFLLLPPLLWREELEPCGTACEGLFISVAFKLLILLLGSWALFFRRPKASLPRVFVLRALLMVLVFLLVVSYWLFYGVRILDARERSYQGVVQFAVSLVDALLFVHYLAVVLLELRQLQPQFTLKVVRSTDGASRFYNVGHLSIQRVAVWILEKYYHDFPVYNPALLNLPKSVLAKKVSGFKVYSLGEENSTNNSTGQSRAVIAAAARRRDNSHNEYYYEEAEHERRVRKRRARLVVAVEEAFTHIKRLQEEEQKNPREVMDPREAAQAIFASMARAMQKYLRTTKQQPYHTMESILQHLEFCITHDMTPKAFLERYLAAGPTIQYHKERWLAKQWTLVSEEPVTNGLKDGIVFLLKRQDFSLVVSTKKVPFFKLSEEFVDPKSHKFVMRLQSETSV
UniProt Q9UL03, whole entry: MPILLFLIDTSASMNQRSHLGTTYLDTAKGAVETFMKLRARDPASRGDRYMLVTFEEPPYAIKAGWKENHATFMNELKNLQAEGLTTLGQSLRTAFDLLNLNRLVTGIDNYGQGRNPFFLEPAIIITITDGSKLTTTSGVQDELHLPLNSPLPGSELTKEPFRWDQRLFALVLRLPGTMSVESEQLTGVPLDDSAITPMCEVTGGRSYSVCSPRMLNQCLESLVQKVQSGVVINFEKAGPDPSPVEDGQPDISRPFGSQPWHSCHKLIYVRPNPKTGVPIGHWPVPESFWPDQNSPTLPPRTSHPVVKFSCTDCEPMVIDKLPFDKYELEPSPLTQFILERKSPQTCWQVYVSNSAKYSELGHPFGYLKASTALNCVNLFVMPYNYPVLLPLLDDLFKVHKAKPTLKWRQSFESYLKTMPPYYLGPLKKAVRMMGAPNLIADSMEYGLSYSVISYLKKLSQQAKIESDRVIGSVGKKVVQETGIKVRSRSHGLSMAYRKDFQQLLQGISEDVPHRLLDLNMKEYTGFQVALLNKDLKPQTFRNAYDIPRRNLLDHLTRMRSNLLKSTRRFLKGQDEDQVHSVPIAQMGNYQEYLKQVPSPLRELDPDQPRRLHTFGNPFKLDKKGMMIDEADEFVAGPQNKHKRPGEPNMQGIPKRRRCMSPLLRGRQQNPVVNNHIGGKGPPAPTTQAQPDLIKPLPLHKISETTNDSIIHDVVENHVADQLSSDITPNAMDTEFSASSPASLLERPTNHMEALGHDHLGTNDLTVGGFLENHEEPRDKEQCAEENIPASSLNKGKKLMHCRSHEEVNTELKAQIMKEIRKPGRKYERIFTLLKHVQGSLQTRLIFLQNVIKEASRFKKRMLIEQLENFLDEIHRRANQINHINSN
UniProt Q9Y289: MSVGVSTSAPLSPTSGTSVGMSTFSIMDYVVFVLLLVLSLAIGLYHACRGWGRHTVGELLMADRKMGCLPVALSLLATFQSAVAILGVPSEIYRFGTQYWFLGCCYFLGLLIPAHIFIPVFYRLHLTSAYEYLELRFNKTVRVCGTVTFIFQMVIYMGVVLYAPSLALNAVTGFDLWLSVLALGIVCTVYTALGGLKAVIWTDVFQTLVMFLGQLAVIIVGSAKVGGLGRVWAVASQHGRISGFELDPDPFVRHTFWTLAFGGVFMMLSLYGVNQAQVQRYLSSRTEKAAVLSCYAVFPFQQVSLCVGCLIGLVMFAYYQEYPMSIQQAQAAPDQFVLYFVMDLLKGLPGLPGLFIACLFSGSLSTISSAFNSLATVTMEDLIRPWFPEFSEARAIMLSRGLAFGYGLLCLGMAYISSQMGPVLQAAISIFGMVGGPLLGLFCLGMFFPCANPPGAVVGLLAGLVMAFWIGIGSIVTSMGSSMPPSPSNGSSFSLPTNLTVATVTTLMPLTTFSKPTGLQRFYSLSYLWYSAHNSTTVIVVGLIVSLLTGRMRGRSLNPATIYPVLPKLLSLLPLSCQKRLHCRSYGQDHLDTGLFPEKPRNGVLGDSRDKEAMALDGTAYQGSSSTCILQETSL
UniProt Q9UPN4: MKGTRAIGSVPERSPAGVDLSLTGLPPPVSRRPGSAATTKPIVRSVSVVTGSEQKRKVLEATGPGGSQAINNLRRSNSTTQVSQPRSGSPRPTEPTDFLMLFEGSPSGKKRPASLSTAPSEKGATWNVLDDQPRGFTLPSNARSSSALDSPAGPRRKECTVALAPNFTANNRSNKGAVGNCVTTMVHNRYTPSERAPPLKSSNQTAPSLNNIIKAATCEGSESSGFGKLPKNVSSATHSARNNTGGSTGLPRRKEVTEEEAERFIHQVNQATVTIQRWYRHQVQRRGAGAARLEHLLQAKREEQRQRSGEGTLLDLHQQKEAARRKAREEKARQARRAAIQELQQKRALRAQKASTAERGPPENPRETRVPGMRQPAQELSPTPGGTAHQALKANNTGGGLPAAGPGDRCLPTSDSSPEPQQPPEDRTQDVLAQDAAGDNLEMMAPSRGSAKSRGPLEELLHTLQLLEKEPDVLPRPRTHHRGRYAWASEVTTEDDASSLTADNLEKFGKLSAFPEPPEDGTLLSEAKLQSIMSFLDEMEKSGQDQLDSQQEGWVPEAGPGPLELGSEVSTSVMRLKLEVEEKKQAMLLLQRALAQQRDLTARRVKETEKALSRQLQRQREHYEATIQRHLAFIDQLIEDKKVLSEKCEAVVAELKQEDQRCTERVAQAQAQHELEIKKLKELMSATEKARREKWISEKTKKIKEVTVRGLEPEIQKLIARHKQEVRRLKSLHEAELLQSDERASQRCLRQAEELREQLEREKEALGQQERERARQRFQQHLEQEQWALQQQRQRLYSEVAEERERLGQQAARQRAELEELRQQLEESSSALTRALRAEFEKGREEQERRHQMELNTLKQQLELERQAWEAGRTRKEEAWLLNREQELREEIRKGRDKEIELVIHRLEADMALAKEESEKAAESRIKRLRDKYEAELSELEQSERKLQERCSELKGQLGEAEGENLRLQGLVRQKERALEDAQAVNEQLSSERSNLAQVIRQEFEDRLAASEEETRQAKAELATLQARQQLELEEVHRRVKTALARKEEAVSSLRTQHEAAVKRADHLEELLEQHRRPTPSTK

The other results are listed elsewhere or left out. Most values lie at the level of the controls, where differences are scatter.

Compound in this assay: CN[C@@H]1C[C@H]2O[C@@](C)([C@@H]1OC)n1c3ccccc3c3c4c(c5c6ccccc6n2c5c31)C(=O)NC4 [staurosporine]
The assay can be described thus: log2 fold change of tryptic peptide abundance, ligand vs vehicle (limited proteolysis) (log2 ratio); higher = more trypsin-susceptible (destabilized). The note with it: ligand concentration: 20 uM; sample: K562 cleared lysate; digestion: 4 min, 22 C (HT-PELSA RT4min, Orbitrap Astral).
Turning to “MRPS28 (peptide sequence: NVESFASMLR, peptide start residue: 76) (UniProt Q9Y2Q9)”, the log2 fold change was -0.118.

Turning to “INPP5F (peptide sequence: DHYILQQGER, peptide start residue: 8) (UniProt Q9Y2H2)”, the log2 fold change came to 0.258.

Consider “SH3GLB1 (peptide sequence: CGETQKR, peptide start residue: 121) (UniProt Q9Y371)”, for which the log2 fold change was determined as 1.45.

For “MAPRE3 (peptide sequence: LSNVAPPCILRKNPPSAR, peptide start residue: 175) (UniProt Q9UPY8)”, the log2 fold change is 1.33.

Take “FBXO4 (peptide sequence: QIDGIGSGVNFQLNNQHK, peptide start residue: 213) (UniProt Q9UKT5)”: the log2 fold change is -0.0764.

For “UniProt Q9Y2Q1 (peptide sequence: AFNWSSALTTLTQHK, peptide start residue: 408)”, the log2 fold change is -0.378.

Take “ABT1 (peptide sequence: LRAEVAQAK, peptide start residue: 171) (UniProt Q9ULW3)”: the log2 fold change amounted to 0.25.

As for “SLC7A11 (peptide sequence: LPSLGNKEPPGQEK, peptide start residue: 24) (UniProt Q9UPY5)”, the log2 fold change was -0.696.

For “PSME2 (peptide sequence: KQVEVFRQNLFQEAEEFLYR, peptide start residue: 15) (UniProt Q9UL46)”, the log2 fold change stood at 0.506.

On to “UniProt Q9Y3B1 (peptide sequence: TPMAAAAFAEK, peptide start residue: 184)”, for which the log2 fold change is -0.231.

As for “GINS2 (peptide sequence: VSADSFVR, peptide start residue: 130) (UniProt Q9Y248)”, the log2 fold change was -0.128.

With “UniProt Q9Y2K7 (peptide sequence: LTPVRPAAASPIVSGAR, peptide start residue: 549)”, the log2 fold change is -0.221.

With “UniProt Q9Y2G0 (peptide sequence: FANIEEDTPSYHR, peptide start residue: 126)”, the log2 fold change turned out to be 0.118.

Consider “UniProt Q9ULD5 (peptide sequence: NCTEGIVIK, peptide start residue: 444)”, for which the log2 fold change is 0.438.

As for “STUB1 (peptide sequence: VGHFDPVTR, peptide start residue: 264) (UniProt Q9UNE7)”, the log2 fold change came to 0.168.

As to “VANGL2 (peptide sequence: LQEEEQK, peptide start residue: 694) (UniProt Q9ULK5)”, the log2 fold change is -0.045.

Regarding “UniProt Q9Y2E4 (peptide sequence: TCVVVAEERPR, peptide start residue: 1281)”, the log2 fold change is -0.0303.

With “RAB22A (peptide sequence: VCLLGDTGVGK, peptide start residue: 8) (UniProt Q9UL26)”, the log2 fold change was -0.37.

Take “APPL1 (peptide sequence: TNPFGESGGSTK, peptide start residue: 479) (UniProt Q9UKG1)”: the log2 fold change is -0.122.

“INTS6 (peptide sequence: HKRPGEPNMQGIPK, peptide start residue: 642) (UniProt Q9UL03)”: the log2 fold change was found to be 0.381.

Regarding “SLC5A6 (peptide sequence: SYGQDHLDTGLFPEKPR, peptide start residue: 585) (UniProt Q9Y289)”, the log2 fold change was 0.0868.

Consider “UniProt Q9ULH7 (peptide sequence: MQLEVEKR, peptide start residue: 589)”, for which the log2 fold change amounted to 0.354.

On to “HECTD1 (peptide sequence: MAAAGGTVSGPSSACKPGR, peptide start residue: 240) (UniProt Q9ULT8)”, for which the log2 fold change is -0.239.

As for “UniProt Q9UPN4 (peptide sequence: EIELVIHR, peptide start residue: 899)”, the log2 fold change worked out at 1.09.

On to “MAPK8IP3 (peptide sequence: QLSPNGGQEDTR, peptide start residue: 674) (UniProt Q9UPT6)”, for which the log2 fold change amounted to 0.0812.

Take “SLC12A4 (peptide sequence: GIDYYDR, peptide start residue: 58) (UniProt Q9UP95)”: the log2 fold change is -0.18.
